{
  "sequences": {"note": "By UniProt entry, the sequences of proteins in these tests, tags left out.", "UniProt P61169, whole entry": "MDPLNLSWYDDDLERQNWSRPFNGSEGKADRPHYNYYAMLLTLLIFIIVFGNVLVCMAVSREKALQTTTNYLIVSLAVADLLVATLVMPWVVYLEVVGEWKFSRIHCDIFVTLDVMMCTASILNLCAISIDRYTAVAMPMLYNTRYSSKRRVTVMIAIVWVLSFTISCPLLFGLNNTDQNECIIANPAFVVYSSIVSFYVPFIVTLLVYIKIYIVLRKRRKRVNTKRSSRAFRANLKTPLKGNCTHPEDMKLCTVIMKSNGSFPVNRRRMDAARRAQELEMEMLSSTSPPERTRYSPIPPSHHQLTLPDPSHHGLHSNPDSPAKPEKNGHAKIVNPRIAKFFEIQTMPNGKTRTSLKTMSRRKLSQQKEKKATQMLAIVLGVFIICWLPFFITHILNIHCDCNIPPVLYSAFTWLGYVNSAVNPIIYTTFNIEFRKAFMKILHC"},
  "source": "patent EP0409236A1",
  "about": "“Optically active naphthylethanol derivative” (Eisai Co., Ltd., priority 1989, dated 1991)",
  "key": {"[1]": {"biological_target": "T1, dopamine D₂ receptor (Rattus norvegicus, UniProt P61169)", "T1 construct": "Rat striatum was used as a membrane source; from tissue; host or cells: rat striatum (homogenised membrane fraction)", "assay": "The affinity for dopamine D2 receptor ([3H]-spiperone binding, rat striatum membranes)", "details": "d-isomer relative to racemate"}, "[2]": {"tested_on": "male ddy mice", "assay": "Effect on KCN-induced mortality in mice", "details": "mouse, in vivo"}, "[3]": {"tested_on": "pyramidal cells in the CA1 region of the gerbil hippocampus", "assay": "Effect on ischemia-induced neuronal damage in the gerbil hippocampus", "assay_type": "in vivo", "details": "i.p., 1 to 10 mg/kg", "from_the_text": "Effect on ischemia-induced neuronal damage in the gerbil hippo- campus\nKirino reported that a brief cerebral ischemia caused the destruction of the pyramidal cells in the CA1 region of the gerbil hippocampus [Brain Res. 239: 57-69 (1982)]. Effect of the compound(B) on this ischemia-induced neuronal damage was examined.\nThe compounds were intraperitoneally administered to each animal and one hour later 5-min ischemia was produced by clamping both common carotid arteries. One week after the 5-min ischemia gerbils were fixed by transcardiac perfusion of fixative which consisted of 4% formaldehyde in phosphate buffer (pH 7.4). The fixed brain was embedded in paraffin and semi-thin (3 µm) sections were cut at a level of the dorsal hippocampus. The sections were stained with feulgen for cell counting by an image-analyzing computer. Normal pyramidal cells in the area of 0.105 x 1.175 mm² were counted."}},
  "note": "Structures can show the parent of a compound that is named as a salt. At least one compound was matched to its structure with a doubt left.",
  "data": [
    {"smiles": "O=C(c1ccc(F)cc1)C1CCN(C[C@@H](O)c2ccc3ccccc3c2)CC1", "note": "[d-isomer of compound (B), hydrochloride]", "values": [
      {"measurement": "affinity for D₂ receptor, times as high as that of the racemate", "setting": "[1]", "value": 2.9, "unit": "times"},
      {"measurement": "survival time (result in words)", "setting": "[2]", "value": "significantly prolonged the survival time"},
      {"measurement": "protection against the neuronal damage (result in words)", "setting": "[3]", "value": "protected against the neuronal damage in a dose dependent manner"}
    ]}
  ]
}
